# Source: PubChem BioAssay AID504774 (Drosophila RNAi Screening Center, 2011)
# Purpose: 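Genes required for cells to withstand methyl methanesulphonate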 (primary screen)
# Cells: Drosophila Kc167 cells
# Knock-down reagent: long dsRNA against Drosophila genes, about 0.25 µg dsRNA per well
# Duration: about 6 days: 3 days knock-down, then 3 days with or without MMS
# Treatment: methyl methanesulphonate 0.004% (w/v) for 3 days after knock-down
# Detection: 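Viability in wells given MMS, read as ATP luminescence, normalised by quantiles plate by plate and averaged across replicates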
# Direction: mean viability with MMS and viability with MMS: higher = more surviving cells after MMS
# In all, the deposit lists about 23,000 reagents; shown is an unselected part of those with a known target gene and a result. 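Values are quantile-normalised luminescence on an arbitrary scale; higher means more cells surviving MMS.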 Names joined by + are all predicted targets of the reagent.
predicted target,DRSC id,mean viability with MMS,"viability with MMS, replicate 1","viability with MMS, replicate 2"
Skadu,DRSC01490,3.65e6,4.07e6,4.15e6
Mrtf,DRSC08263,3.09e6,3.60e6,3.62e6
Mrtf,DRSC08410,3.29e6,3.73e6,3.74e6
Mrtf,DRSC08411,3.53e6,4.02e6,3.98e6
Mrtf,DRSC23194,3.73e6,4.20e6,4.26e6
CG12355,DRSC09381,1.61e6,3.67e6,3.89e6
CG12355,DRSC09883,3.65e6,4.03e6,4.21e6
AlkB,DRSC19115,3.65e6,4.18e6,4.01e6
CG31386 (retired record),DRSC22769,3.40e6,3.89e6,3.93e6
CG31386 (retired record),DRSC23186,3.57e6,4.06e6,4.07e6
Ccp84Af,DRSC12591,3.55e6,3.92e6,4.14e6
CG5781,DRSC02893,3.72e6,4.31e6,4.04e6
CG33331 + CG33332,DRSC22928,3.46e6,3.95e6,3.94e6
knrl,DRSC11892,3.68e6,4.15e6,4.15e6
knrl,DRSC23245,1.90e6,2.20e6,1.44e6
CG31957,DRSC00207,3.36e6,3.96e6,3.70e6
HBS1,DRSC08544,3.34e6,3.81e6,3.80e6
PGAP5,DRSC03089,3.53e6,4.01e6,4.01e6
CG6421,DRSC07420,3.52e6,3.86e6,4.11e6
spag,DRSC04717,3.48e6,3.81e6,4.06e6
CG1314,DRSC20495,3.60e6,4.02e6,4.16e6
lncRNA:CR40629,DRSC20959,2.31e6,4.03e6,4.00e6
CG34129,DRSC15960,3.37e6,3.69e6,3.86e6
Ir7g,DRSC18008,3.53e6,3.96e6,4.07e6
Kpc2,DRSC07635,3.54e6,3.96e6,4.06e6
GluRIIA,DRSC03334,3.56e6,3.98e6,4.08e6
Kmn1,DRSC19666,3.44e6,3.88e6,3.92e6
mRpS35,DRSC08551,3.52e6,3.98e6,4.00e6
Sap30,DRSC19916,3.54e6,4.09e6,3.96e6
CG15208,DRSC19654,3.54e6,4.06e6,4.05e6
ccb,DRSC20501,3.48e6,3.90e6,4.02e6
CG15260,DRSC01977,3.60e6,4.07e6,4.09e6
CG17134,DRSC02583,3.50e6,3.95e6,3.99e6
CG4707,DRSC04483,3.52e6,3.85e6,3.91e6
Obp85a,DRSC14362,3.49e6,4.03e6,3.89e6
CR12628 + Mgstl,DRSC03702,3.57e6,3.90e6,3.98e6
CR12628 + Mgstl,DRSC20568,3.57e6,3.96e6,4.12e6
Snoo,DRSC01008,3.71e6,4.18e6,4.18e6
Snoo,DRSC03004,3.65e6,4.04e6,4.28e6
Snoo,DRSC03035,3.63e6,4.14e6,4.09e6
shtd,DRSC20166,3.43e6,3.48e6,4.11e6
PolZ2,DRSC12325,3.55e6,4.04e6,4.01e6
Glys,DRSC16130,3.50e6,3.99e6,3.93e6
CG4338,DRSC15564,3.41e6,3.82e6,3.87e6
Rsbp15,DRSC14176,3.43e6,3.89e6,3.92e6
CG10912,DRSC06009,3.61e6,4.12e6,4.07e6

In a second layout: entries from further up
predicted target	DRSC id	mean viability with MMS	viability with MMS, replicate 1	viability with MMS, replicate 2
mRpS35	DRSC08551	3.52e6	3.98e6	4.00e6
Sap30	DRSC19916	3.54e6	4.09e6	3.96e6
CG15208	DRSC19654	3.54e6	4.06e6	4.05e6
ccb	DRSC20501	3.48e6	3.90e6	4.02e6
CG15260	DRSC01977	3.60e6	4.07e6	4.09e6
CG17134	DRSC02583	3.50e6	3.95e6	3.99e6
CG4707	DRSC04483	3.52e6	3.85e6	3.91e6
Obp85a	DRSC14362	3.49e6	4.03e6	3.89e6
